Experimental findings from PubChem BioAssay AID248 (DTP/NCI, 2004) are described below.

The assay relates to L1210 leukemia ip in BDF1 mice, survival T/C. Put plainly: NCI In Vivo Anticancer Drug Screen. Data for tumor model L1210 Leukemia (intraperitoneal) in B6D2F1 (BDF1) mice. The settings on record: T/C endpoint: mean survival time, higher T/C = longer survival.
[1] abbreviates: dose: 200.0 mg/kg/injection, schedule: Q04DX003 (ip), vehicle: saline with Tween-80.
[2] abbreviates: dose: 400.0 mg/kg/injection, schedule: Q04DX003 (ip), vehicle: saline with Tween-80.
[3] abbreviates: dose: 100.0 mg/kg/injection, schedule: Q04DX003 (ip), vehicle: Klucel (hydroxypropylcellulose) (HPC).
The mark [4] stands for this setting: dose: 200.0 mg/kg/injection, schedule: Q04DX003 (ip), vehicle: Klucel (hydroxypropylcellulose) (HPC).
[5] abbreviates: dose: 400.0 mg/kg/injection, schedule: Q04DX003 (ip), vehicle: Klucel (hydroxypropylcellulose) (HPC).
Setting [6] is: dose: 400.0 mg/kg/injection, schedule: Q04DX002 (ip), vehicle: saline.
Where [7] appears, read: dose: 400.0 mg/kg/injection, schedule: Q01DX001 (ip), vehicle: Klucel (hydroxypropylcellulose) (HPC).
[8] abbreviates: dose: 400.0 mg/kg/injection, schedule: Q04DX002 (ip), vehicle: Klucel (hydroxypropylcellulose) (HPC).
Where [9] appears, read: dose: 200.0 mg/kg/injection, schedule: Q04DX002 (ip), vehicle: Klucel (hydroxypropylcellulose) (HPC).
The mark [10] stands for this setting: dose: 200.0 mg/kg/injection, schedule: Q01DX009 (ip), vehicle: saline.
[11] abbreviates: dose: 50.0 mg/kg/injection, schedule: Q04DX003 (ip), vehicle: saline.

SMILES strings stand for the structures. The list is a part of this screen's results and no random one: it is rich in T/C values a quarter to a half above the control, in often repeated tests (any T/C) and in doses without a T/C. Other doses and runs of a compound stand elsewhere. T/C gives the treated animals as a percentage of the vehicle group. Some entries give survivors of the animals treated and no T/C: the source holds a T/C of zero for them, seemingly a mark for toxic or unscored doses. Some doses without a T/C left all or most animals alive at the check, yet need not have been tolerated: the source hardly ever lists a survival T/C far under the control, and the zero likely stands for such cases as well. Survivors were counted at the toxicity check, usually on the fifth day, unless a day is given; later deaths do not show. Schedule codes are those of the source, read here as Q, the interval in days (D) or hours (H), X, the number of doses. Some schedule codes hold Z or #, which are not explained here. Some entries hold several experiments; their values stand side by side, smallest first. For survival time, this PubChem deposit counts one and a half times the control or more as active, and values a quarter to a half above the control carry no call in these data; other NCI protocols may use other cut-offs.

Take `CCCCC(CCCC)c1cc[n+](CC(=O)c2ccccc2)cc1`: the survivor count (dose: 25.0 mg/kg/injection, schedule: Q01DX001 (ip), vehicle: saline) is 6 of 6; the survivor count (dose: 100.0 mg/kg/injection, schedule: Q01DX001 (ip), vehicle: saline) was 0 of 6; the survivor count (dose: 200.0 mg/kg/injection, schedule: Q01DX001 (ip), vehicle: saline) is reported as 0 of 6; the survivor count (dose: 400.0 mg/kg/injection, schedule: Q01DX001 (ip), vehicle: saline) is 0 of 6.
Regarding `CC1(C)CN(Cc2ccccc2)C(C)(C)CN1`, the survivor count runs as follows: (dose: 50.0 mg/kg/injection, schedule: Q04DX003 (ip), vehicle: saline with Tween-80) 1 of 6; (dose: 100.0 mg/kg/injection, schedule: Q04DX003 (ip), vehicle: saline with Tween-80) 0 of 6; under setting [1], 0 of 6; under setting [2], 0 of 6.
Take `Cc1ccc(NC(N)=S)cc1`: the survivor count is, setting by setting: under setting [3], 4 of 6; under setting [4], 3 of 6; under setting [5], 0 of 6.
In the case of `CCCCCNCCC[P+](c1ccccc1)(c1ccccc1)c1ccccc1`, the survivor count by setting is: (dose: 100.0 mg/kg/injection, schedule: Q04DX002 (ip), vehicle: saline) 3 of 3; (dose: 200.0 mg/kg/injection, schedule: Q04DX002 (ip), vehicle: saline) 0 of 3; under setting [6], 0 of 3.
Take `CN=C(N)c1cccc(NC(=O)c2ccc(C(=O)Nc3cccc(C(N)=NC)c3)cc2)c1`: the survivor count is, setting by setting: (dose: 60.0 mg/kg/injection, schedule: Q01DX Z (ip), vehicle: saline) 0 of 6; (dose: 120.0 mg/kg/injection, schedule: Q01DX Z (ip), vehicle: saline) 0 of 6.
`CCCCCCCCCCCCSc1ccc2ccccc2c1`: under setting [7], the survivor count was 6 of 6.
On to `Cc1ccc(NCC(=O)NN)cc1`, for which the survivor count under setting [8] is recorded as 1 of 3.
For the molecule `COC(=O)c1ccccc1NC(=O)c1ccccc1C(=O)O`, the survivor count is 3 of 3 under setting [9] and 3 of 3 under setting [8].
Turning to `Cc1c(Cl)cc(Cl)c2ncccc12`, the survivor count by setting is: under setting [3], 5 of 6; under setting [4], 0 of 6; under setting [5], 0 of 6.
On to `NC(=O)c1cc(Cl)cc(Cl)c1Br`, for which the survivor count (dose: 400.0 mg/kg/injection, schedule: Q04DX003 (ip), vehicle: other) is 2 of 6.
For the molecule `OCC1OC(n2cnc3c(SCc4ccccc4)ncnc32)C(O)C1O` (configuration not stated), the survivor count is, setting by setting: (dose: 50.0 mg/kg/injection, schedule: Q01DX Z (ip), vehicle: methylcellulose (MC)) 0 of 6; (dose: 100.0 mg/kg/injection, schedule: Q01DX Z (ip), vehicle: methylcellulose (MC)) 0 of 6; (dose: 200.0 mg/kg/injection, schedule: Q01DX Z (ip), vehicle: methylcellulose (MC)) 0 of 6; (dose: 300.0 mg/kg/injection, schedule: Q01DX009 (ip), vehicle: carboxymethylcellulose (CMC)) 5 of 6; (dose: 300.0 mg/kg/injection, schedule: Q01DX009 (ip), vehicle: saline) 6 of 6. Moreover, the T/C is 145 % of control (dose: 58.0 mg/kg/injection, schedule: Q01DX009 (ip), vehicle: saline); 142 % of control (dose: 88.0 mg/kg/injection, schedule: Q01DX009 (ip), vehicle: saline); 125 % of control under setting [10].
As to `C=CCN1C(=O)C=CC1=O`, the survivor count (dose: 12.0 mg/kg/injection, schedule: Q04DX002 (ip), vehicle: Klucel (hydroxypropylcellulose) (HPC)) is given as 0 of 3; the survivor count (dose: 25.0 mg/kg/injection, schedule: Q04DX002 (ip), vehicle: Klucel (hydroxypropylcellulose) (HPC)) was 0 of 3; the survivor count (dose: 50.0 mg/kg/injection, schedule: Q04DX002 (ip), vehicle: Klucel (hydroxypropylcellulose) (HPC)) is 0 of 3; the survivor count (dose: 100.0 mg/kg/injection, schedule: Q04DX002 (ip), vehicle: Klucel (hydroxypropylcellulose) (HPC)) is listed as 0 of 3; the survivor count under setting [9] is 0 of 3; the survivor count under setting [8] was 0 of 3.
Consider `NNc1cccc(C(F)(F)F)c1`, for which the survivor count is, setting by setting: (dose: 100.0 mg/kg/injection, schedule: Q01DX009 (ip), vehicle: saline with Tween-80) 0 of 6; under setting [1], 1 of 6; under setting [2], 0 of 6.
Turning to `COCCOCCN1CCN(CCCN2c3ccccc3Sc3ccc(C(F)(F)F)cc32)CC1`, the T/C by setting is: (dose: 25.0 mg/kg/injection, schedule: Q04DX003 (ip), vehicle: saline) 131 % of control; (dose: 33.0 mg/kg/injection, schedule: Q04DX003 (ip), vehicle: saline) 147 % of control; under setting [11], 138 % of control. In addition, the survivor count by setting is: (dose: 35.0 mg/kg/injection, schedule: Q04DX003 (ip), vehicle: saline) 6 of 6; under setting [11], 3 of 6; (dose: 75.0 mg/kg/injection, schedule: Q04DX003 (ip), vehicle: saline) 0 of 6 and 5 of 6; (dose: 100.0 mg/kg/injection, schedule: Q04DX003 (ip), vehicle: saline) 6 of 6.
As to `CCOC(=O)C(=O)C(C#N)C(=O)OCC` (configuration not stated), the survivor count is, setting by setting: (dose: 150.0 mg/kg/injection, schedule: Q01DX009 (ip), vehicle: saline) 4 of 6; under setting [4], 5 of 6; (dose: 225.0 mg/kg/injection, schedule: Q01DX009 (ip), vehicle: saline) 1 of 6; (dose: 335.0 mg/kg/injection, schedule: Q01DX009 (ip), vehicle: saline) 0 of 6; under setting [5], 4 of 6.
Regarding `CCCCCCC(C)C(COC(=O)c1ccc([N+](=O)[O-])cc1)NCC` (configuration not stated), the survivor count (dose: 300.0 mg/kg/injection, schedule: Q01DX001 (ip), vehicle: saline) is 3 of 6.
As for `O=C(CCNc1ccccc1)c1ccccc1`, the survivor count is, setting by setting: under setting [10], 0 of 3; under setting [6], 0 of 3.
On to `O=C(O)C1C2C=CC(C2)C1C(=O)O.[Cu+2]` (configuration not stated), for which the survivor count is 2 of 6 (dose: 25.0 mg/kg/injection, schedule: Q04DX003 (ip), vehicle: Klucel (hydroxypropylcellulose) (HPC)); 0 of 6 (dose: 40.0 mg/kg/injection, schedule: Q01DX009 (ip), vehicle: Klucel (hydroxypropylcellulose) (HPC)); 0 of 6 (dose: 50.0 mg/kg/injection, schedule: Q04DX003 (ip), vehicle: Klucel (hydroxypropylcellulose) (HPC)); 0 of 6 (dose: 100.0 mg/kg/injection, schedule: Q01DX001 (ip), vehicle: Klucel (hydroxypropylcellulose) (HPC)); 0 of 6 (dose: 200.0 mg/kg/injection, schedule: Q01DX001 (ip), vehicle: Klucel (hydroxypropylcellulose) (HPC)); 0 of 6 under setting [7].
Regarding `C#CP(CCCC)CCCC`, the survivor count (dose: 200.0 mg/kg/injection, schedule: Q04DX002 (ip), vehicle: saline with Tween-80) was 0 of 3 and the survivor count (dose: 400.0 mg/kg/injection, schedule: Q04DX002 (ip), vehicle: saline with Tween-80) was 0 of 3.
As for `O=[N+]([O-])c1cc(Cl)ccc1S(=O)(=O)c1ccccc1`, the survivor count was 6 of 6 (dose: 100.0 mg/kg/injection, schedule: Q01DX009 (ip), vehicle: Klucel (hydroxypropylcellulose) (HPC)); 6 of 6 (dose: 200.0 mg/kg/injection, schedule: Q01DX009 (ip), vehicle: Klucel (hydroxypropylcellulose) (HPC)); 6 of 6 (dose: 400.0 mg/kg/injection, schedule: Q01DX009 (ip), vehicle: Klucel (hydroxypropylcellulose) (HPC)).
